These are yes or no findings as the source states them, for the method shown. Binding seen in cells or lysates may run through a third protein. Binding can be weak; no strength is given. Values belong to the binder of their own block, whether it stands above or below them.
Molecular target: WT GABAA receptor α1 subunit (bait of WT α1β2γ2 GABAA receptors) (human)
Assay: co-IP; lysates (500 μg) of HEK293T cells stably expressing WT α1β2γ2 or α1(A322D)β2γ2 immunoprecipitated with mouse anti-α1 antibody and protein A/G plus-agarose beads at 4 °C, Western blot; immunoglobulin G as negative control; three replicates

binding: binds
B1: UNC45A (protein, UniProt Q9H3U1 1-944)
chain: MTVSGPGTPEPRPATPGASSVEQLRKEGNELFKCGDYGGALAAYTQALGLDATPQDQAVLHRNRAACHLKLEDYDKAETEASKAIEKDGGDVKALYRRSQALEKLGRLDQAVLDLQRCVSLEPKNKVFQEALRNIGGQIQEKVRYMSSTDAKVEQMFQILLDPEEKGTEKKQKASQNLVVLAREDAGAEKIFRSNGVQLLQRLLDMGETDLMLAALRTLVGICSEHQSRTVATLSILGTRRVVSILGVESQAVSLAACHLLQVMFDALKEGVKKGFRGKEGAIIVDPARELKVLISNLLDLLTEVGVSGQGRDNALTLLIKAVPRKSLKDPNNSLTLWVIDQGLKKILEVGGSLQDPPGELAVTANSRMSASILLSKLFDDLKCDAERENFHRLCENYIKSWFEGQGLAGKLRAIQTVSCLLQGPCDAGNRALELSGVMESVIALCASEQEEEQLVAVEALIHAAGKAKRASFITANGVSLLKDLYKCSEKDSIRIRALVGLCKLGSAGGTDFSMKQFAEGSTLKLAKQCRKWLCNDQIDAGTRRWAVEGLAYLTFDADVKEEFVEDAAALKALFQLSRLEERSVLFAVASALVNCTNSYDYEEPDPKMVELAKYAKQHVPEQHPKDKPSFVRARVKKLLAAGVVSAMVCMVKTESPVLTSSCRELLSRVFLALVEEVEDRGTVVAQGGGRALIPLALEGTDVGQTKAAQALAKLTITSNPEMTFPGERIYEVVRPLVSLLHLNCSGLQNFEALMALTNLAGISERLRQKILKEKAVPMIEGYMFEEHEMIRRAATECMCNLAMSKEVQDLFEAQGNDRLKLLVLYSGEDDELLQRAAAGGLAMLTSMRPTLCSRIPQVTTHWLEILQALLLSSNQELQHRGAVVVLNMVEASREIASTLMESEMMEILSVLAKGDHSPVTRAAAACLDKAVEYGLIQPNQDGE

binding: binds
B2: ERLIN2 (protein, UniProt O94905 1-339)
chain: MAQLGAVVAVASSFFCASLFSAVHKIEEGHIGVYYRGGALLTSTSGPGFHLMLPFITSYKSVQTTLQTDEVKNVPCGTSGGVMIYFDRIEVVNFLVPNAVYDIVKNYTADYDKALIFNKIHHELNQFCSVHTLQEVYIELFDQIDENLKLALQQDLTSMAPGLVIQAVRVTKPNIPEAIRRNYELMESEKTKLLIAAQKQKVVEKEAETERKKALIEAEKVAQVAEITYGQKVMEKETEKKISEIEDAAFLAREKAKADAECYTAMKIAEANKLKLTPEYLQLMKYKAIASNSKIYFGKDIPNMFMDSAGSVSKQFEGLADKLSFGLEDEPLETATKEN

— PMC9493394
